This is an account of results in the supplement of paper PMC10331698.

± gives the standard deviation of the averaged measurements. Small differences around the control level are noise.

Holding throughout (assay): level (log10 ratio to DMSO vehicle control); higher = higher biomarker level / cell amount than vehicle control
Compound in one assay: FC(F)(F)C(F)(F)C(F)(F)C(F)(F)C(F)(F)C(F)(F)I [Perfluoro-1-iodohexane]
To be noted: in DMSO. The protocol: (§1)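 BioMAP Diversity Plus panel of 12 human primary cell co-culture systems (3C, 4H, LPS, SAg, BT, BF4T, BE3C, CASM3C, HDF3CGF, KF3CT, MyoF, Mphg). Compounds were added 1 h before stimulation and left for 24 h (MyoF 48 h; BT 72 h for soluble read-outs or 6 d for IgG). Biomarkers were read by ELISA, cytotoxicity by SRB, PBMC viability and proliferation by Alamar Blue. Each well value was divided by the mean of 8 DMSO control wells on the same plate and log10 transformed; duplicate blinded samples were tested at 4 concentrations.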

Compound in assay [1]: O=S(=O)(O)C(F)(F)C(F)(F)C(F)(F)C(F)(F)C(F)(F)C(F)(F)F [Perfluorohexanesulfonic acid]
To be noted: 2200 nM; in DMSO. As to the method: as §1

Compound in assay [2]: OCCCC(F)(F)C(F)(F)C(F)(F)C(F)(F)C(F)(F)C(F)(F)C(F)(F)F [7:3 Fluorotelomer alcohol]
Particulars: 2200 nM; in DMSO. As to the method: as §1

Compound in assay [3]: C=CC(=O)OCCC(F)(F)C(F)(F)C(F)(F)C(F)(F)F [2-(Perfluorobutyl)ethyl acrylate]
Particulars: 2200 nM; in DMSO. The protocol: as §1

Compound in assay [4]: O=C(O)C(F)(F)C(F)(F)C(F)(F)C(F)(F)C(F)(F)C(F)(F)C(F)(F)C(F)(F)C(F)(F)C(F)(F)C(F)(F)C(F)(F)C(F)(F)F [Perfluorotetradecanoic acid]
To be noted: in DMSO. As to the method:
as §1

Compound in a further assay: OCC(F)(F)C(F)(F)C(F)(F)CO [Hexafluoroamylene glycol]
To be noted: 2200 nM; in DMSO. As to the method:
as §1

Compound in assay [5]: C=CC(=O)OCCC(F)(F)C(F)(F)C(F)(F)C(F)(F)C(F)(F)C(F)(F)C(F)(F)C(F)(F)F [8:2 Fluorotelomer acrylate]
Particulars: 2200 nM; in DMSO. As to the method: as §1

Compound in assay [6]: O=C(O)C=C(C(F)(F)F)C(F)(F)F [3,3-Bis(trifluoromethyl)-2-propenoic acid]
Particulars: in DMSO. As to the method:
as §1

Compound in assay [7]: O=S(=O)(O)CCC(F)(F)C(F)(F)C(F)(F)C(F)(F)F [4:2 Fluorotelomer sulfonic acid]
To be noted: 2200 nM; in DMSO. The protocol: as §1

Compound in assay [8]: FC(F)(F)C(F)(C(F)(F)F)C(F)(F)C(F)(F)CC1CO1 [3-(Perfluoro-3-methylbutyl)-1,2-propenoxide]
To be noted: in DMSO. As to the method: as §1

Compound in assay [9]: C=CC(=O)OCC(F)(F)C(F)(F)C(F)(F)COC(=O)C=C [1H,1H,5H,5H-Perfluoro-1,5-pentanediol diacrylate]
To be noted: 2200 nM; in DMSO. As to the method:
as §1

Compound in assay [10]: O=C(Cl)C(F)(F)C(F)(F)C(F)(F)C(=O)Cl [Hexafluoroglutaryl chloride]
To be noted: 2200 nM; in DMSO. As to the method:
as §1

Compound in assay [11]: FC(F)(I)C(F)(F)C(F)(F)C(F)(F)C(F)(F)C(F)(F)I [1,6-Diiodoperfluorohexane]
Particulars: 2200 nM; in DMSO. The protocol:
as §1

Regarding BE3C:Keratin 8/18, the “level (log10)” value in the assay with Perfluoro-1-iodohexane (2200 nM) is -0.0215 ± 0.022; with Perfluoro-1-iodohexane (6700 nM), -0.007 ± 0.037; in the assay with Perfluoro-1-iodohexane (20000 nM) it was -0.0105 ± 0.0078; with Perfluoro-1-iodohexane (60000 nM), 0.005 ± 0.024; in [1] it was -0.006 ± 0.017; in assay [2], 0.0185 ± 0.019. Further, the “level (log10)” value in [3] is -0.001 ± 0.04; in assay [4] (740 nM), -0.001 ± 0.023; in assay [4] (2200 nM), 0.0235 ± 0.012; in the assay with Hexafluoroamylene glycol, -0.0025 ± 0.0064; in assay [5] it was 0.0025 ± 0.03; in assay [6] (2200 nM) it was 0.0075 ± 0.016. Further, the “level (log10)” value in assay [6] (6700 nM) was -0.001 ± 0.0014; in [6] (20000 nM), -0.0025 ± 0.005; in assay [6] (60000 nM), 0.014 ± 0.031; in [7] it was -0.002; in assay [8] (740 nM) it was -0.013 ± 0.0028; in [8] (2200 nM), 0.0055 ± 0.013. The “level (log10)” value in assay [9] is -0.0065 ± 0.0021; in assay [10], 0.007 ± 0.0014; in assay [11] it was -0.016 ± 0.054.

As for BT:sIL-2, the “level (log10)” value with Perfluoro-1-iodohexane (2200 nM) was 0.0425 ± 0.0078; with Perfluoro-1-iodohexane (6700 nM), 0.0065 ± 0.052; in the assay with Perfluoro-1-iodohexane (20000 nM), -0.0005 ± 0.1; in the assay with Perfluoro-1-iodohexane (60000 nM), -0.0005 ± 0.098; in [1] it was 0.038 ± 0.093; in assay [2], 0.0195 ± 0.05. Moreover, the “level (log10)” value in [3] is 0.025 ± 0.018; in [4] (740 nM) it was 0.0365 ± 0.018; in assay [4] (2200 nM), 0.062 ± 0.096; in the assay with Hexafluoroamylene glycol, -0.0205 ± 0.04; in assay [5] it was 0.0715 ± 0.0035; in assay [6] (2200 nM), -0.113 ± 0.088. The “level (log10)” value in assay [6] (6700 nM) is -0.297 ± 0.042; in [6] (20000 nM), -0.529 ± 0.02; in assay [6] (60000 nM), -0.648 ± 0.072; in assay [7], -0.0345 ± 0.047; in assay [8] (740 nM), 0.0575 ± 0.039; in assay [8] (2200 nM), 0.0375 ± 0.035. Further, the figures for the “level (log10)” value in assay [9], in assay [10] and in assay [11] were -0.135 ± 0.042, 0.0015 ± 0.0078 and -0.018 ± 0.13, respectively.

Consider BT:sIL-17A, for which the “level (log10)” value was -0.0115 ± 0.039 with Perfluoro-1-iodohexane (2200 nM); -0.004 ± 0.018 in the assay with Perfluoro-1-iodohexane (6700 nM); -0.0905 ± 0.12 in the assay with Perfluoro-1-iodohexane (20000 nM); -0.089 ± 0.2 with Perfluoro-1-iodohexane (60000 nM); 0.0055 ± 0.16 in [1]; -0.13 ± 0.26 in assay [2]. In addition, the “level (log10)” value was -0.0935 ± 0.11 in assay [3]; 0.03 ± 0.073 in assay [4] (740 nM); 0.029 ± 0.095 in assay [4] (2200 nM); 0.006 ± 0.14 with Hexafluoroamylene glycol; 0.077 ± 0.059 in assay [5]; 0.007 ± 0.075 in assay [6] (2200 nM). Also, the “level (log10)” value in assay [6] (6700 nM) was 0.0535 ± 0.043; in assay [6] (20000 nM) it was -0.246 ± 0.1; in [6] (60000 nM) it was -0.482 ± 0.0028; in assay [7] it was -0.078 ± 0.028; in [8] (740 nM), -0.0195 ± 0.066; in [8] (2200 nM), 0.004 ± 0.1. Besides, the “level (log10)” value in assay [9] was -0.34 ± 0.12; in assay [10] it was -0.095 ± 0.1; in assay [11], 0.0465 ± 0.064.

On to BF4T:MMP-9, for which the “level (log10)” value in the assay with Perfluoro-1-iodohexane (2200 nM) was -0.0285 ± 0.052; in the assay with Perfluoro-1-iodohexane (6700 nM) it was -0.0005 ± 0.015; with Perfluoro-1-iodohexane (20000 nM), -0.011 ± 0.0042; with Perfluoro-1-iodohexane (60000 nM) it was -0.021 ± 0.034; in assay [1], 0.016 ± 0.076; in assay [2] it was 0.0015 ± 0.013. Also, the “level (log10)” value in [3] was 0.0015 ± 0.061; in assay [4] (740 nM) it was 0.004 ± 0.059; in [4] (2200 nM) it was -0.017 ± 0.051; in the assay with Hexafluoroamylene glycol it was 0.007 ± 0.038; in assay [5] it was -0.0095 ± 0.033; in [6] (2200 nM), -0.0015 ± 0.032. In addition, the “level (log10)” value in [6] (6700 nM) was -0.0155 ± 0.0021; in assay [6] (20000 nM), -0.0185 ± 0.018; in [6] (60000 nM), -0.004 ± 0.021; in assay [7] it was 0.0115 ± 0.066; in assay [8] (740 nM), -0.008 ± 0.0085; in assay [8] (2200 nM), 0.003 ± 0.011. Also, the “level (log10)” value in assay [9] is -0.009 ± 0.0042; in assay [10], -0.009 ± 0.023; in assay [11], -0.015 ± 0.035.

On to KF3CT:IL-1alpha, for which the “level (log10)” value is -0.0025 ± 0.046 with Perfluoro-1-iodohexane (2200 nM); 0.008 ± 0.017 with Perfluoro-1-iodohexane (6700 nM); 0.005 ± 0.017 with Perfluoro-1-iodohexane (20000 nM); -0.014 ± 0.017 with Perfluoro-1-iodohexane (60000 nM); 0.019 ± 0.057 in [1]; 0.006 ± 0.0057 in [2]. Also, the “level (log10)” value in assay [3] is -0.006 ± 0.038; in [4] (740 nM), -0.035; in assay [4] (2200 nM), -0.011 ± 0.023; with Hexafluoroamylene glycol it was -0.018 ± 0.024; in assay [5] it was -0.0035 ± 0.028; in assay [6] (2200 nM) it was -0.0065 ± 0.0064. Also, the “level (log10)” value was -0.001 ± 0.0057 in [6] (6700 nM); -0.016 ± 0.016 in assay [6] (20000 nM); -0.0185 ± 0.032 in assay [6] (60000 nM); -0.0245 ± 0.028 in [7]; 0.0095 ± 0.053 in assay [8] (740 nM); -0.013 ± 0.042 in assay [8] (2200 nM). Moreover, the “level (log10)” value is -0.038 ± 0.083 in assay [9], -0.0285 ± 0.005 in assay [10] and -0.0085 ± 0.025 in assay [11].

Turning to BE3C:EGFR, the “level (log10)” value with Perfluoro-1-iodohexane (2200 nM) was 0.022 ± 0.0099; with Perfluoro-1-iodohexane (6700 nM) it was 0.0095 ± 0.00071; with Perfluoro-1-iodohexane (20000 nM), -0.0055 ± 0.0021; with Perfluoro-1-iodohexane (60000 nM), 0.0285 ± 0.013; in [1], -0.0015 ± 0.011; in assay [2] it was 0.017 ± 0.0071. Besides, the “level (log10)” value was -0.013 ± 0.0099 in [3]; 0.017 ± 0.0028 in [4] (740 nM); 0.002 ± 0.0014 in assay [4] (2200 nM); 0.005 ± 0.011 with Hexafluoroamylene glycol; 0.0025 ± 0.015 in assay [5]; -0.0015 ± 0.023 in [6] (2200 nM). Further, the “level (log10)” value in assay [6] (6700 nM) was -0.015 ± 0.014; in [6] (20000 nM), -0.011 ± 0.0085; in assay [6] (60000 nM) it was -0.0015 ± 0.012; in [7], -0.0085 ± 0.0092; in assay [8] (740 nM) it was -0.013 ± 0.021; in [8] (2200 nM), -0.0105 ± 0.013. The “level (log10)” value in [9] was -0.009 ± 0.014; in assay [10], 0.0195 ± 0.012; in assay [11], -0.017 ± 0.0014.
